# The supplement of paper PMC6411743
# ± gives the standard deviation of the averaged measurements. The list shows a part of the results.
# Biological target: T1, PHB (UniProt P35232)
# T1 sequence (whole entry): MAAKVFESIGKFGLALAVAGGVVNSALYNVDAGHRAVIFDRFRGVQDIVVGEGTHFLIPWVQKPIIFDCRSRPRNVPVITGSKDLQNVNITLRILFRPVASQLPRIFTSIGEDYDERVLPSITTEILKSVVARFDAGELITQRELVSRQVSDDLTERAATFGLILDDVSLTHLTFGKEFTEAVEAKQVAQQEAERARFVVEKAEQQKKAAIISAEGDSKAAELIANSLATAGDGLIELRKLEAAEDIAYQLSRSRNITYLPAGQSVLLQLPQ
# Experiment: NP40-soluble protein abundance relative to vehicle (solubility fold change) (ratio); higher = more soluble protein in presence of GTP
# Protocol: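 Solubility proteome profiling in Jurkat crude lysate. Lysate was treated with Mg-GTP (0.1-10 mM) for 10 min at room temperature and 3 min at 37 °C, then solubilised with 0.8% NP40 and benzonase, followed by ultracentrifugation. Proteins were quantified by TMT10 LC-MS/MS; the value is the NP40-soluble abundance relative to the NP40-processed vehicle, from 3 independent experiments.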
smiles,measurement,setting,value
Nc1nc2c(ncn2[C@@H]2O[C@H](COP(=O)(O)OP(=O)(O)OP(=O)(O)O)[C@@H](O)[C@H]2O)c(=O)[nH]1 [guanosine triphosphate],NP40-soluble protein abundance,concentration: 0.1mM,1.01 ± 0.038
same,NP40-soluble protein abundance,concentration: 0.5mM,1.04 ± 0.085
same,NP40-soluble protein abundance,concentration: 1mM,0.966 ± 0.073
same,NP40-soluble protein abundance,concentration: 2mM,0.98 ± 0.13
same,NP40-soluble protein abundance,concentration: 4mM,0.995 ± 0.12
same,NP40-soluble protein abundance,concentration: 6mM,0.942 ± 0.11
same,NP40-soluble protein abundance,concentration: 8mM,0.974 ± 0.098
same,NP40-soluble protein abundance,concentration: 10mM,0.932 ± 0.12
